Measured values taken from patent US20090142372A1.
Results are given in words; binding and its absence hold for the method and conditions named. Some binding calls cover weakened binding; strength is not graded here.

Sequences of proteins named here, by UniProt entry; tags and fusion partners are left off. Residues count along the entry.
UniProt P08603, residues 19-1231: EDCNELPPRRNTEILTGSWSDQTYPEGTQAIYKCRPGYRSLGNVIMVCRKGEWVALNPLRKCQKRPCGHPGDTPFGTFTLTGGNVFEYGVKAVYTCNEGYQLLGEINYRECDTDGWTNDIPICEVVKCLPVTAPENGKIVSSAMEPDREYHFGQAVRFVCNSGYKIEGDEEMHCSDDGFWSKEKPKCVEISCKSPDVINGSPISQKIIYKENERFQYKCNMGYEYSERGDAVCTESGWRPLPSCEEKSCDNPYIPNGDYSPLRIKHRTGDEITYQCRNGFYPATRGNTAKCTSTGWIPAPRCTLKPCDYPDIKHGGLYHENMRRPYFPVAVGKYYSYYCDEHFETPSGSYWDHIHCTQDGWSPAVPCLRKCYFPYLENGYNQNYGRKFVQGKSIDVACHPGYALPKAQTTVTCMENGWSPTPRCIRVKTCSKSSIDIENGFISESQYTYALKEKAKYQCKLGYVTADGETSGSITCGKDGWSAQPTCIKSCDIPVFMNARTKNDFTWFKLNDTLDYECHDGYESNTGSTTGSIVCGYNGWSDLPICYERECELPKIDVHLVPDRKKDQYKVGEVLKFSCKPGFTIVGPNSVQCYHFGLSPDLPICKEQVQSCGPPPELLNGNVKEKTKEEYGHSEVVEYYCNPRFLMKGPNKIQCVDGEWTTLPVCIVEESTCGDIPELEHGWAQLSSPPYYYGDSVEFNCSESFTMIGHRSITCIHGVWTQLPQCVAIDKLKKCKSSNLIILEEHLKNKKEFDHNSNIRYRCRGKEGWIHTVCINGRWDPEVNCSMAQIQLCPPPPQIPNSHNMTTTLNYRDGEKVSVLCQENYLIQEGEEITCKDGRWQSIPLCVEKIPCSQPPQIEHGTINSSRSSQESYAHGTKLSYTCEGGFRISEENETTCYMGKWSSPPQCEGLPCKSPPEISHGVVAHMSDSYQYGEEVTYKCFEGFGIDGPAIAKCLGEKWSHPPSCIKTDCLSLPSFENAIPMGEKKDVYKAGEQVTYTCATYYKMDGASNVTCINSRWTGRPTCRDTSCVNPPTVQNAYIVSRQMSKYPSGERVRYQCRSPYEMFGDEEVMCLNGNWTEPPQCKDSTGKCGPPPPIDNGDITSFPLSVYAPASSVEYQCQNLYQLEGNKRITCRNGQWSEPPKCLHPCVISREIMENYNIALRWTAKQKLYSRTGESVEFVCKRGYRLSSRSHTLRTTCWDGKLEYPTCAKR

Target: T1, Human bone BSP (human) (UniProt P21815)
T1 sequence (looked up): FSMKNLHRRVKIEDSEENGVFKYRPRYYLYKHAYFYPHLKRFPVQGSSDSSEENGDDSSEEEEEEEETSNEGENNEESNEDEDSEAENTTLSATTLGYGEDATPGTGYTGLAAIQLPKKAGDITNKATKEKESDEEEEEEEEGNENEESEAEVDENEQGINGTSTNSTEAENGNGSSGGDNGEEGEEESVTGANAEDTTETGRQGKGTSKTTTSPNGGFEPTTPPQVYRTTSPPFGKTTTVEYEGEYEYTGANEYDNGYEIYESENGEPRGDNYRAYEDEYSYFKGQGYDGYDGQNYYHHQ
Assay: affinity column, one partner coupled to cyanogen bromide-activated Sepharose 4B

In the case of “complement factor H (CFH) (from UniProt P08603 19-1231)”, the binding is reported as “binds”.
